Laboratory results from the supplement of paper PMC12889115.
The list shows a part of the results. These are raw signals, not scaled to a control.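 In the initial screen, polymyxin B was used at a concentration that permeabilizes Salmonella's outer membrane but not its inner membrane. Maximum growth was set by DMSO wells with or without polymyxin B. Since plates varied, data were ranked per plate, and compounds giving the lowest OD600 advanced as hits.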

Tested on: Salmonella enterica serovar Typhimurium SL1344
Experiment: bacterial growth OD600 after 18 h with compound and polymyxin B; higher = more bacterial growth (less inhibition)
Details: 50 µM, Mueller-Hinton broth

| Compound | bacterial growth OD600 (polymyxin B 1 µg/mL) | bacterial growth OD600 (polymyxin B 0.75 µg/mL) |
| --- | --- | --- |
| CC#CC(=O)N1CCCC(Cc2ccc(F)cc2F)(C(=O)OCC)C1 (stereo not drawn) | 0.815 |  |
| COc1cccc(CCC2CCCN(C(=O)C(C)C)C2)c1 (stereo not drawn) |  | 0.596 |
| Cc1ncoc1C(=O)N1CCCC(CCc2ccccc2C(F)(F)F)C1 (stereo not drawn) |  | 0.651 |
| COc1ccc(NC(=O)CCC2CCCN(C(=O)CCc3cccnc3)C2)cc1Cl (stereo not drawn) | 0.877 |  |
| O=C(CCC1(Cc2cccs2)CCC(=O)N1)NCc1cnn(-c2ccccc2)n1 (stereo not drawn) |  | 0.81 |
| CN(CCC(O)c1ccccc1)C(=O)c1cc(COc2cccc3cnccc23)on1 (stereo not drawn) | 0.944 |  |
| O=C(c1cc(COc2ccc3c(c2)CCCC3)on1)N1CCN(C2CCCC2)C(=O)C1 | 0.005 |  |
| COc1cccc(CNC(=O)CCC2CCCN(C(=O)Cc3cccc(C)c3)C2)c1 (stereo not drawn) | 1.2 |  |
| Cn1ccnc1SCCNc1nc2nonc2nc1N1CCSCC1 |  | 0.953 |
| Cc1c(C(=O)N2CCCCC2)sc2ncnc(N3CCCCCCC3)c12 |  | 0.003 |
| CN(C)CC(C)(C)CNC(=O)c1cc(Cn2cnc3ccccc32)[nH]n1 |  | 0.795 |
| O=C(NC1(c2ccccc2)CC1)C1CCC(=O)N(CCCN2CCOCC2)C1 (stereo not drawn) | 0.838 |  |
| Cc1cc(C(=O)N2CCCC(Nc3ccc4c(c3)OCCO4)C2)nn1C (stereo not drawn) | 0.944 |  |
| C/C=C(\C)CN1CCC(O)(Cc2cc(-c3ccccc3)no2)CC1 | 0.702 |  |
| COc1ccc2ccc(OCc3nc(C(=O)N4CCC(C)CC4)co3)cc2c1 | 0.61 |  |
| O=C(CSc1ncccn1)NCC1Cc2cc(-c3ccsc3)cc(Cl)c2O1 (stereo not drawn) |  | 0.01 |
| Cc1c(C(C)NCc2cccc3cnccc23)cnn1-c1ccc(F)cc1F (stereo not drawn) |  | 0.751 |

| Compound | bacterial growth OD600 (polymyxin B 1 µg/mL) | bacterial growth OD600 (polymyxin B 0.75 µg/mL) |
| --- | --- | --- |
| CN(C)c1ccc(C(=O)N2CCC(Cn3cccn3)CC2)cn1 |  | 0.82 |
| Cc1cc(-c2nnc(CCC(=O)NCC(C)c3ccccc3)o2)no1 (stereo not drawn) | 0.829 |  |
| CN(C(=O)C1CC1)C(Cc1ccc(F)cc1F)C1CCN(C(=O)C2CC(=O)c3ccccc32)CC1 (stereo not drawn) |  | 0.841 |
| O=C(CCn1cnnn1)N1CCCC(CCc2ccccc2F)C1 (stereo not drawn) |  | 0.773 |
| COCCN1C(=O)NC(Cc2ccccc2Cl)(C2CCN(C(=O)c3cc(C)ccc3C)CC2)C1=O (stereo not drawn) |  | 0.852 |
| COc1cccc(CCc2nnc(CCC(=O)NCCC(C)C)o2)c1 |  | 0.785 |
| COc1ccc(C(=O)C2CCCN(C(=O)c3ccc4oc(C)cc4c3)C2)c(C)c1 (stereo not drawn) | 0.522 |  |
| Cc1cc(Cl)c2oc(C(=O)N(CCO)Cc3ccccc3)c(C)c2c1 | 0.001 |  |
| CCc1noc(C)c1C(=O)N1CCC2(CCCN(CC(C)(C)C)C2=O)C1 (stereo not drawn) | 0.901 |  |
| CCOC(=O)C1(Cc2ccc(F)cc2F)CCCN(C(=O)Cc2cccnc2)C1 (stereo not drawn) | 0.693 |  |
| COCCNC(=O)c1ccc(OC)cc1OC1CCN(C/C=C/C(C)C)CC1 | 1.04 |  |
| CCN1CCCC(CN(C)c2nc3nonc3nc2NCCCOC)C1 (stereo not drawn) |  | 0.81 |
| CCN1CCc2onc(C(c3ccccc3)c3ccccc3)c2C1 |  | 0.306 |
| CCS(=O)(=O)N1CCC2(CCCN(Cc3cccc(F)c3F)C2=O)C1 (stereo not drawn) | 0.889 |  |
| COCCO[C@H]1[C@H](NC(=O)C(C)C)c2ccccc2C12CCN(C(=O)CCc1cccs1)CC2 |  | 0.846 |
| COc1ccc(NC(=O)CCC2CCCN(C(=O)CCC(=O)c3ccccc3)C2)c(C)c1 (stereo not drawn) | 1.21 |  |

Gathered by group, the compounds so far containing an aryl thioether with sulfur outside any ring (two)

| Compound | bacterial growth OD600 (polymyxin B 1 µg/mL) | bacterial growth OD600 (polymyxin B 0.75 µg/mL) |
| --- | --- | --- |
| Cn1ccnc1SCCNc1nc2nonc2nc1N1CCSCC1 |  | 0.953 |
| O=C(CSc1ncccn1)NCC1Cc2cc(-c3ccsc3)cc(Cl)c2O1 (stereo not drawn) |  | 0.01 |
